Test results as given in patent US20240307335A1, “IRG Blockade to Armor CAR T Cells Against Myeloid Dysfunction” (ROSWELL PARK CANCER INSTITUTE CORPORATION, priority 2023, published 2024).
For at least one compound, name, drawing or mass did not settle the structure.

Tested on: CAR T cells cocultured with Eμ-myc cells with or without macrophages (imMac)
Assay: Expansion assay of mCherry+ CAR T cells (IncuCyte live cell analysis) in cocultures
Assay type: cell-based, mouse
Conditions: agent present, over 48 h
Description: Macrophage development and polarization: BMDMs were generated from bone marrow cells harvested from femurs and tibias of WT or iNOS^−/− mice. […] On day 3, 10 ml of fresh medium with 20 ng/ml M-CSF was added. On day 5, the culture medium was entirely discarded and replaced by 15 ml of fresh medium with 20 ng/ml M-CSF. On day 6, BMDMs were activated for 24 h with 20 ng/ml of IL-4 and IL-10 (Peprotech) to develop imMac or cultured in media only to use as unMac. M-CSF (20 ng/ml) was added during activation with cytokines. On day 7, adherent cells were harvested by gentle scraping and used for in vitro experiments.
Expansion assay: The expansion of mCherry^+ CAR T cells was determined by an IncuCyte S3 live cell analysis system (Essen Bioscience). […] The expansion index was calculated by dividing the total integrated red intensity (RCU×m^2/mm^2) at each time point by the first time point.
Immunoregulatory actions of macrophages on CAR T cells: To explore how M2-like macrophages may impact the cellular function of CAR T cells, the study employed a syngeneic coculture system (FIG. 3A). […] Next, CAR T cells isolated from the cocultures were evaluated for their effector function against fresh Eμ-myc cells.

C=C(CC(=O)O)C(=O)O [itaconate]
CAR T cell expansion: reduced CAR T cell expansion
